Article PMC5437310
No constants are given. Whether binding was seen depends on the method and setting. Binding can be weak; no strength is given.

Chains of the proteins cited; added tags and fusions are not shown. Lines headed by an entry give the natural chain unless they say otherwise; changes in a name come on top.
UniProt Q9VWE4: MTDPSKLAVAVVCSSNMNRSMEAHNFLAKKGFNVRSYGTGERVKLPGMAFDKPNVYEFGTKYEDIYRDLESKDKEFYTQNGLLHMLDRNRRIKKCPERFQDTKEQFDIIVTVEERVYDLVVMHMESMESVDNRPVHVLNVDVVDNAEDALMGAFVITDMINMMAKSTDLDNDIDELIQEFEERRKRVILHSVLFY

Target: T1, D. melanogaster symplekin (residues 19-351) (Drosophila melanogaster) (UniProt Q8MSU4)
T1 sequence: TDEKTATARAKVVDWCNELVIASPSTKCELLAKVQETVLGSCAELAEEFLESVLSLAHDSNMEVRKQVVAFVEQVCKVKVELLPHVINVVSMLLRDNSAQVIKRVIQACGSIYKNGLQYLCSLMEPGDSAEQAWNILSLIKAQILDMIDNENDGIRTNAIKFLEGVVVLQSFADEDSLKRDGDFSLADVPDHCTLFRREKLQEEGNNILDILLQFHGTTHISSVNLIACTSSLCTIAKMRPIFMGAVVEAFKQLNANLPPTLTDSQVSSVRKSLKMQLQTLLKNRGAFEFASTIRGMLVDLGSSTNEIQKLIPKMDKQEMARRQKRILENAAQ
Experiment: SEC; Ssu72 and symplekin incubated at a molar ratio of 1:1.5 overnight at 4 °C in a dialysis bag; complex separated from unbound protein on Superdex-200; complex formation verified by SDS-PAGE; both purified

binding: binds
Substance: D. melanogaster Ssu72 phosphatase (from UniProt Q9VWE4) (enzyme)
